SMILES strings stand for the structures. The list shows a part of the results. This data set is noisy: repeats of one test often differ as much as different tests do.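 U2OS cells carrying ACE2 were mixed with U2OS cells carrying full-length spike, and fusion was scored by imaging as the share of nuclei showing both cell types' fluorescent markers. A compound counts as an inhibitory hit when it is non-toxic and its fusion z-score falls below -3, meaning more than three standard deviations below the plate's DMSO wells.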

This assay deals with U2OS ACE2 x SARS-CoV-2 spike co-culture. As to the kind of experiment: cell-cell fusion (fraction fused) z-score vs plate DMSO control; higher = more fusion. Particulars: 30 µM; 5 h; toxicity class: non-toxic, passed QC.
For the compound `O=C1C=C(O)C(=O)c2ccccc21`, the “cell-cell fusion (z-score)” value is inactive: 1.5.
Then `CCN(CC)CCOC(=O)c1cc(Cl)c(N)cc1OC.Cl` [SDZ-205,557 hydrochloride], with inactive: -2.39; and `O=C(C1CCCCC1)N1CC(=O)N2CCc3ccccc3C2C1` (stereo not drawn) [Praziquantel], with inactive: 2.2; and `CCOC(=O)N1CCC(=C2c3ccc(Cl)cc3CCc3cccnc32)CC1` [Loratadine], with inactive: 1.88.
Then `CC(=O)O[C@]1(C(C)=O)CC[C@H]2[C@@H]3C[C@H](C)C4=CC(=O)C=C[C@]4(C)[C@@]3(F)[C@@H](O)C[C@@]21C` [Fluorometholone Acetate], with inactive: 2.74.
Then `Br.Br.N=C(N)SCCc1ccc(CCSC(=N)N)cc1` [1,4-PB-ITU dihydrobromide], with inactive: 1.78; and `Cl.NC1CC1c1ccccc1` (stereo not drawn) [Tranylcypromine hydrochloride], with inactive: -1.76.
Take `CC(C)(C)C(=O)Oc1ccc(S(=O)(=O)Nc2ccccc2C(=O)NCC(=O)[O-])cc1.[Na+]` [Sivelestat sodium salt hydrate]: the “cell-cell fusion (z-score)” value is inactive: 2.73.
Next, `O=C([O-])/C=C/C(=O)[O-].[Fe+2]` [Ferrous fumarate]: inactive: 2.72; `Br.CN1C2CC(OC(=O)[C@H](CO)c3ccccc3)C[C@H]1[C@H]1OC21` (stereo partly drawn): inactive: -2.29; `Cl.N=C(N)NCCC[C@H](N)C(=O)O` [L-arginine monohydrochloride]: inactive: 3.22.
Then `COC(=O)C1=C(C)NC(C)=C(C(=O)OC)C1c1ccccc1[N+](=O)[O-]`, with inactive: 0.182; and `Oc1ccc(Cl)cc1Cc1cc(Cl)ccc1O`, with inactive: -2.11.
Regarding `O=c1[nH]c(=O)c2nc3ccccc3nc2[nH]1` [Alloxazine], the “cell-cell fusion (z-score)” value was inactive: 1.52.
Then `C#CCCCCCCCCCCCC(O)CC(O)CO.C=CCCCCCCCCCCCC(O)CC(O)CO` (stereo not drawn), with inactive: 1.67; and `CC(C)(c1ccc(O)cc1)c1ccc(O)cc1`, with inactive: 1.97.
Next, `O=C(Nc1ccc([N+](=O)[O-])cc1Cl)c1cc(Cl)ccc1O` [Niclosamide]: inactive: 0.0182; `CCC(=O)O[C@H]1CCC2C3CCC4=CC(=O)CC[C@]4(C)C3CC[C@@]21C` (stereo partly drawn): inactive: 1.41; `Br.CN1CCc2cc(O)cc3c2[C@H]1Cc1ccc(O)c(O)c1-3` [R(-)-2,10,11-Trihydroxyaporphine hybrobromide]: inactive: -1.37.
Then `OC[C@@H](O)[C@@H](O)[C@H](O)[C@H](O)CO` [D-Mannitol], with inactive: 2.61; and `COC(=O)[C@@H]1C[C@H](OC(C)=O)C(=O)[C@H]2[C@@]1(C)CC[C@H]1C(=O)O[C@H](c3ccoc3)C[C@]21C`, with inactive: 1.94.
In the case of `CCCc1c(OCCCOc2ccc(OCC(=O)O)cc2)ccc(C(C)=O)c1O`, the “cell-cell fusion (z-score)” value was inactive: 3.39.
Then `CC1=C(C(=O)O)N2C(=O)[C@@H](NC(=O)C(N)c3ccc(O)cc3)[C@H]2SC1` (stereo partly drawn), with inactive: 1.29; and `Br.COC(=O)C1=CCCN(C)C1` [Arecoline hydrobromide], with inactive: 1.92; and `Br.COC(=O)C1=CCCN(C)C1`, with inactive: 3.35.
Then `Cc1cccc([C@H](C)c2cnc[nH]2)c1C` [Dexmedetomidine], with inactive: 1.65.
Next, `CC(C)NCC(O)COc1ccc(CCOCC2CC2)cc1.Cl` (stereo not drawn) [Betaxolol hydrochloride]: inactive: 2.56; `CCNC(=O)c1noc(-c2cc(C(C)C)c(O)cc2O)c1-c1ccc(CN2CCOCC2)cc1`: inactive: 1.63; `O=C(CCCCC(=O)Nc1c(I)cc(I)c(C(=O)O)c1I)Nc1c(I)cc(I)c(C(=O)O)c1I`: inactive: 3.91.
For the compound `Br.Cc1onc(O)c1CC(N)C(=O)O` (racemic) [(±)-AMPA hydrobromide], the “cell-cell fusion (z-score)” value is inactive: 0.74.
Next, `O=C(O)c1cc(-c2ccc(F)cc2F)ccc1O`: inactive: 0.626; `CO/N=C1\CN(c2nc3c(cc2F)c(=O)c(C(=O)O)cn3C2CC2)CC1CN.CS(=O)(=O)O` (stereo not drawn): inactive: 5.65; `Cc1c(C)c2c(c(C)c1O)CCC(C)(C(=O)O)O2` (stereo not drawn): inactive: 4.17.
For the compound `CC1(C)CCC=[N+]1[O-]` [5,5-Dimethyl-1-pyrroline-N-oxide], the “cell-cell fusion (z-score)” value was inactive: 2.2.
Next, `Nc1ncnc2c1ncn2C1CCCO1` (stereo not drawn): inactive: -1.5; `Br.COc1ccc2c(c1)[C@]13CCCC[C@@H]1[C@H](C2)N(C)CC3`: inactive: 0.382.
Then `CNCc1ccccc1.Cl`, with inactive: 2.1.
For `CC(C)(C)c1cc(C=C(C#N)C#N)cc(C(C)(C)C)c1O` [Tyrphostin 9], the “cell-cell fusion (z-score)” value was inactive: 2.28.
Then `CC(C)(C)NCC(O)c1ccc(O)c(CO)c1` (stereo not drawn), with inactive: 3.9; and `O=C1O[C@H]([C@@H](O)CO)C([O-])=C1O.[Na+]` [Sodium ascorbate], with inactive: 1.8; and `CCC(=O)O[C@]1(C(=O)CCl)[C@@H](C)C[C@H]2[C@@H]3CCC4=CC(=O)C=C[C@]4(C)[C@@]3(F)[C@@H](O)C[C@@]21C` [Clobetasol propionate], with inactive: -2.08.
Next, `OC[C@H]1OC(O)[C@H](O)[C@@H](O)[C@@H]1O` (stereo partly drawn) [D(+)-Glucose]: inactive: 3.1; `NCCCC(=O)O`: inactive: 2.03.
Then `CCCC(=O)O[C@]1(C(=O)COC(C)=O)CC[C@H]2[C@@H]3C[C@H](F)C4=CC(=O)C=C[C@]4(C)[C@@]3(F)[C@@H](O)C[C@@]21C` [Difluprednate], with inactive: 2.38; and `CC(C)(C)NCC(O)COc1cccc2c1C[C@H](O)[C@H](O)C2` (stereo partly drawn) [Nadolol], with inactive: 2.32.
`C[C@]12CCC3c4ccc(O)cc4CCC3C1CC[C@@H]2O` (stereo partly drawn): the “cell-cell fusion (z-score)” value is inactive: 0.75.
Then `O=C(O[C@H]1C[N+]2(CCCOc3ccccc3)CCC1CC2)C(O)(c1cccs1)c1cccs1.[Br-]` [Aclidinium bromide], with inactive: 1.09; and `C=C(C)[C@H]1CC=C(C(=O)O)CC1`, with inactive: 2.02; and `Cl.Cn1ccc2cc3c(cc21)CCN3C(=O)Nc1cccnc1`, with inactive: 1.05.
Turning to `CC(C)N(CCC(C(N)=O)(c1ccccc1)c1ccccn1)C(C)C.O=P(O)(O)O` (stereo not drawn), the “cell-cell fusion (z-score)” value is inactive: 1.88.
Next, `CC(C)N(CCC(C(N)=O)(c1ccccc1)c1ccccn1)C(C)C.O=P(O)(O)O` (stereo not drawn) [Disopyramide phosphate]: inactive: 3.32; `O.O=C([O-])C1=CS[C@@H]2/C(=C\c3cnc4n3CCOC4)C(=O)N12.[Na+]` [BLI-489 hydrate]: inactive: 0.71.
Then `O.O=C([O-])C1=CS[C@@H]2/C(=C\c3cnc4n3CCOC4)C(=O)N12.[Na+]`, with inactive: 3.48; and `CC1OC1P(=O)([O-])[O-].[Ca+2]` (stereo not drawn), with inactive: -0.858.
For `Cc1onc(-c2c(Cl)cccc2Cl)c1C(=O)N[C@@H]1C(=O)N2[C@@H]1SC(C)(C)[C@@H]2C(=O)[O-].O.[Na+]` [Dicloxacillin sodium monohydrate], the “cell-cell fusion (z-score)” value was inactive: 2.4.
Then `CN1C(C(=O)Nc2ccccn2)=C(O)c2ccccc2S1(=O)=O`, with inactive: 0.932.
Then `CCN(CC)CCNC(=O)c1cc(Cl)c(N)cc1OC.Cl` [Metoclopramide hydrochloride], with inactive: 1.92; and `CCN(CC)CCNC(=O)c1cc(Cl)c(N)cc1OC.Cl`, with inactive: 0.719.
Then `CCSCCC(N)C(=O)O` (stereo not drawn), with inactive: 2.45; and `CO/N=C(\C(=O)N[C@@H]1C(=O)N2C(C(=O)[O-])=C(CSc3nc(=O)c([O-])nn3C)CS[C@H]12)c1csc(N)n1.CO/N=C(\C(=O)N[C@@H]1C(=O)N2C(C(=O)[O-])=C(CSc3nc(=O)c([O-])nn3C)CS[C@H]12)c1csc(N)n1.O.O.O.O.O.O.O.[Na+].[Na+].[Na+].[Na+]` [Ceftriaxone sodium], with inactive: 1.46; and `C[C@](N)(Cc1ccc(O)c(O)c1)C(=O)O` [L-alpha-Methyl DOPA], with inactive: 2.15.
For the compound `COc1c2occc2cc2ccc(=O)oc12`, the “cell-cell fusion (z-score)” value was inactive: -0.384.
Then `CCC1NC(=O)c2cc(S(N)(=O)=O)c(Cl)cc2N1` (stereo not drawn), with inactive: 4.02; and `O.O.O.O=C([O-])C1[O][Sb]2[O]C(=O)C([O]2)C(C(=O)[O-])[O][Sb]2[O]C(=O)C1[O]2.[K+].[K+]` (stereo not drawn), with inactive: 2.9; and `N=C(NCCC[C@H](N)C(=O)O)N[N+](=O)[O-]` [NG-Nitro-L-arginine], with inactive: 2.38.
As to `C=C1[C@H]2CC[C@@]3(C)[C@H](c4ccoc4)OC(=O)C[C@]13O[C@H]1C[C@H](O)C(C)(C)[C@H](CC(=O)OC)[C@]12C` [3-DEOXY-3beta-HYDROXYANGOLENSIC ACID METHYL ESTER], the “cell-cell fusion (z-score)” value was inactive: 1.38.
Next, `CNC(=O)c1cc(COc2nnc(Nc3ccc(Cl)cc3)c3ccoc23)ccn1` [Telatinib (BAY 57-9352)]: inactive: 0.742; `Cc1ncc([N+](=O)[O-])n1C`: inactive: 2.18.
Then `N[C@@H](CO)C(=O)O` [serine], with inactive: 0.435.
Then `CCCCCCCCCCCCCCCC(=O)OC[C@H](NC(=O)C(Cl)Cl)[C@H](O)c1ccc([N+](=O)[O-])cc1`, with inactive: 1.06.
Regarding `COc1ccccc1OCCNCC(O)COc1cccc2[nH]c3ccccc3c12` (stereo not drawn) [Carvedilol], the “cell-cell fusion (z-score)” value was active: -4.06.
Next, `COc1ccc(C(CN(C)C)C2(O)CCCCC2)cc1.Cl` (stereo not drawn): inactive: 2.87; `COc1ccc(C(CN(C)C)C2(O)CCCCC2)cc1.Cl` (stereo not drawn) [Venlafaxine hydrochloride]: inactive: 1.76.
